Data: paper PMC6588558
Results are given in words; binding and its absence hold for the method and conditions named. In cells and extracts the contact can be indirect. A result given as binding can be weak or reduced; the word gives no strength.

Legend:
[1] = target: T1, CovR of S. pyogenes strain SF370 (endogenous) (S. pyogenes (endogenous in strain SF370)) (UniProt O87527); assay: cross-linking
T1 sequence: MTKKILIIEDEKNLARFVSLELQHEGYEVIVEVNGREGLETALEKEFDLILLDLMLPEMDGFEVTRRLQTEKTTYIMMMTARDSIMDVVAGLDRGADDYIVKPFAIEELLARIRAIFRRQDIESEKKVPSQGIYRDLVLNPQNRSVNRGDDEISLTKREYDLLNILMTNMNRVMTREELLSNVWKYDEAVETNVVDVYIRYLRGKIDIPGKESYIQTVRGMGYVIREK

CovR (S. pyogenes) = target: T2, CovR (S. pyogenes) (UniProt O87527); assay: pull-down; AP reactions of affinity-tagged baits in human plasma, separated by SDS-PAGE and blotted with anti-fibrinogen or anti-human serum albumin antibody; only the target purified
T2 sequence: T1 sequence

For human fibrinogen (complex), the binding [1] was “binds” and the binding (CovR (S. pyogenes)) was “binds”.
